# Data reported in publication PMC5177601.
# B1: grainyhead-like 2 protein (GRHL2) (protein, UniProt Q6ISB3 1-625)
# chain: MSQESDNNKRLVALVPMPSDPPFNTRRAYTSEDEAWKSYLENPLTAATKAMMSINGDEDSAAALGLLYDYYKVPRDKRLLSVSKASDSQEDQEKRNCLGTSEAQSNLSGGENRVQVLKTVPVNLSLNQDHLENSKREQYSISFPESSAIIPVSGITVVKAEDFTPVFMAPPVHYPRGDGEEQRVVIFEQTQYDVPSLATHSAYLKDDQRSTPDSTYSESFKDAATEKFRSASVGAEEYMYDQTSSGTFQYTLEATKSLRQKQGEGPMTYLNKGQFYAITLSETGDNKCFRHPISKVRSVVMVVFSEDKNRDEQLKYWKYWHSRQHTAKQRVLDIADYKESFNTIGNIEEIAYNAVSFTWDVNEEAKIFITVNCLSTDFSSQKGVKGLPLMIQIDTYSYNNRSNKPIHRAYCQIKVFCDKGAERKIRDEERKQNRKKGKGQASQTQCNSSSDGKLAAIPLQKKSDITYFKTMPDLHSQPVLFIPDVHFANLQRTGQVYYNTDDEREGGSVLVKRMFRPMEEEFGPVPSKQMKEEGTKRVLLYVRKETDDVFDALMLKSPTVKGLMEAISEKYGLPVEKIAKLYKKSKKGILVNMDDNIIEHYSNEDTFILNMESMVEGFKVTLMEI
# Biological target: T1, FOXA1 (Forkhead box protein A1) (human (endogenous in MCF-7)) (UniProt P55317)
# T1 sequence: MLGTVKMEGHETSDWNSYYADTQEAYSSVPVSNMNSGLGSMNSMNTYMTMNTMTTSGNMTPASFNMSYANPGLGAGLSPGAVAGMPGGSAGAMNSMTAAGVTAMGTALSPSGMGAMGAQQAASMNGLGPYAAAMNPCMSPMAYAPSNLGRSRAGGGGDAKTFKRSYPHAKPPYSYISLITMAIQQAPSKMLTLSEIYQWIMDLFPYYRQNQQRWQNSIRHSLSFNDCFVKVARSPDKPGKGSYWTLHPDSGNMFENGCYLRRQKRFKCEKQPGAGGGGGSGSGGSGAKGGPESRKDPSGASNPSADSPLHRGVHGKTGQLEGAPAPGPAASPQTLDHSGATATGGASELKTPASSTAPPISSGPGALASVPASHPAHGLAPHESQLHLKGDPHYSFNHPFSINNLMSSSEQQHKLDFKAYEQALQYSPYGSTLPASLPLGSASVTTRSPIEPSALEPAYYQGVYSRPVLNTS
# Assay: affinity purification with mass spectrometry; FOXA1 RIME (rapid immunoprecipitation mass spectrometry of endogenous proteins) in asynchronous MCF-7 cells grown in full media; five replicates; matched IgG control RIME; interactors filtered with the CRAPome database
binder,measurement,value
B1,binding,binds

# These are yes or no findings as the source states them, for the method shown. In cells and extracts the contact can be indirect. A yes stands for co-enrichment or nearness to the bait. Other partners may have been found.
